Values joined by “and” are separate entries in the source; they are usually repeats but may differ in a detail not shown here. Equal values may be shown once.
System: Candida albicans
Assay: MIC, micro-broth dilution (CLSI M27-A4)
Assay type: cell-based
Conditions: C. albicans (SC5314), laboratory stock, three independent experiments
Protocol: The MIC of the peptide was determined using a standardized micro-broth dilution method with a panel of pathogenic yeast strains (C. albicans, […], C. neoformans, and C. gattii) and bacterial strains (Escherichia coli, Micrococcus luteus, Staphylococcus aureus, and Pseudomonas aeruginosa).
The value of the MIC was defined as the lowest concentration of drugs showing no yeast growth. The MIC was determined by three independent repeats, each repeat in quintuplicate.

With `C[C@@H]1[C@H](O)[C@@H](C)/C=C/C=C/C=C/C=C/C=C/C=C/C=C/[C@H](O[C@@H]2O[C@H](C)[C@@H](O)[C@H](N)[C@@H]2O)C[C@@H]2O[C@](O)(C[C@@H](O)C[C@@H](O)[C@H](O)CC[C@@H](O)C[C@@H](O)CC(=O)O[C@H]1C)C[C@H](O)[C@H]2C(=O)O` [AmB, amphotericin B] the MIC was 0.4 µM and 0.37 µg/mL.

— publication PMC8754130, “A Peptide from Budding Yeast GAPDH Serves as a Promising Antifungal against Cryptococcus neoformans” (Microbiology Spectrum, 2022)
